# Measurements taken from PubChem BioAssay AID493003 (Sanford-Burnham Center for Chemical Genomics, 2010).
# System: S. cerevisiae tim10-1 mutant growth, luminescence
# Assay: growth inhibitors of tim10-1 mutant yeast, dose response, luminescence, S. cerevisiae, uHTS hits (AID 493003);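 note: yeast growth measured after about 22 hours at 25 °C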
compound,measurement,value
CN1CCN(CCCN2c3ccccc3Sc3ccc(Cl)cc32)CC1,IC50,29.1 µM
